The record followed here is publication PMC13558869.

In test [1] the target is T1, ZFP36L1 (human (endogenous in primary T cells)) (UniProt Q07352).
T1 sequence: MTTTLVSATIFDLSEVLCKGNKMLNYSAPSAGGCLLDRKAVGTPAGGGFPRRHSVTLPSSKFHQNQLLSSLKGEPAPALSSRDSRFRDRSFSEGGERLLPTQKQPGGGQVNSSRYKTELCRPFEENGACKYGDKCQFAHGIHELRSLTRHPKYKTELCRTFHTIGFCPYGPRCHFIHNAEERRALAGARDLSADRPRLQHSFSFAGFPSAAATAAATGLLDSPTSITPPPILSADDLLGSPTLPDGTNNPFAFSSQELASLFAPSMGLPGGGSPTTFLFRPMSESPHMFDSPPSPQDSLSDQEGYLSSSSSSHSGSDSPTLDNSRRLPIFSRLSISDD
Put plainly: affinity purification with mass spectrometry; Co-IP of endogenous ZFP36L1 with 10 μg anti-ZFP36L1 (1A3) or IgG control on Protein A Dynabeads, 4 h at 4°C, from cytoplasmic (1% digitonin) lysates of αCD3/αCD28-activated human CD3+ T cells at 0, 2, 5, 16 h; lysates untreated or treated with 200 U/ml RNAse A throughout; MS.

Test [2] has as its target T2, UltraID_ZFP36L1 (UltraID fused to the N-terminus of ZFP36L1, co-expressed with GFP through P2A) (UniProt Q07352).
T2 sequence: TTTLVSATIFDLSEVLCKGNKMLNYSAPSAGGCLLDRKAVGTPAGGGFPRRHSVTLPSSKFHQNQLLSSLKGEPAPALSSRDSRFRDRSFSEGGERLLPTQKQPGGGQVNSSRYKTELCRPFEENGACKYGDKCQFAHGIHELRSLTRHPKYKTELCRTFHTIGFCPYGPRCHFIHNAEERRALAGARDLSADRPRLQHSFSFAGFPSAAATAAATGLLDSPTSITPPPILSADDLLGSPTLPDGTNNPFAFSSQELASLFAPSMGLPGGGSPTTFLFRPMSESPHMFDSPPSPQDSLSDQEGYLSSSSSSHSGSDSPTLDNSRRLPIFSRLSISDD
Nature of the test: proximity labelling; time course: UltraID_L1 T cells re-activated with αCD3/αCD28 for 0, 2, 5, 16 h; biotin added for 2 h, for 3 h (2-5 h) or for 9 h (5-16 h); streptavidin capture, MS; supervised classification into shapes.

For test [3], the target named is T2, UltraID_ZFP36L1 (UltraID fused to the N-terminus of ZFP36L1, co-expressed with GFP through P2A). Put plainly: proximity labelling; UltraID_L1 in retrovirally transduced primary human T cells, rested or re-activated 16 h with αCD3/αCD28, with or without 500 μM biotin; biotinylated proteins captured from lysate on streptavidin beads and identified by MS; controls UltraID_GFP and no biotin; T cell screens 1 and 2 (the network of Fig 3A also draws on the Jurkat screen).

Test [4] has as its target T3, ZFP36L1 (human (endogenous in primary T cells)), Q07352.
T3 chain: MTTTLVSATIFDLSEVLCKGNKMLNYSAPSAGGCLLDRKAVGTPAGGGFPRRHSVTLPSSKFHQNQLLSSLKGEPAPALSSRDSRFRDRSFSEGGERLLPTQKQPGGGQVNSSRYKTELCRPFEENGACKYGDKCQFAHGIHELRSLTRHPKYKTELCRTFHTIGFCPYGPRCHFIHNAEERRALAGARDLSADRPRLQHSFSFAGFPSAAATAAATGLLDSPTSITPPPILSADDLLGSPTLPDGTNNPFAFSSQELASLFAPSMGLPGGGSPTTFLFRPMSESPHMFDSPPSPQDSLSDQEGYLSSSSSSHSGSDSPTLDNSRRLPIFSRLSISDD
Put plainly: affinity purification with mass spectrometry; Co-IP of endogenous ZFP36L1 with 10 μg anti-ZFP36L1 (1A3) or IgG control on Protein A Dynabeads, 4 h at 4°C, from cytoplasmic (1% digitonin) lysates of αCD3/αCD28-activated human CD3+ T cells at 0, 2, 5, 16 h; lysates untreated or treated with 200 U/ml RNAse A throughout; MS. The following applies: remark: other sources report otherwise.

No constants are given. Whether binding was seen depends on the method and setting. In cells and extracts the contact can be indirect. These calls come from enrichment with a bait or labelling near it, and not all partners need be listed. For some of these results: No binding means not detected with the bait. For some of these results: Sequences can lack the tags named with a protein.

B1: CSTF2T (protein, UniProt Q9H0L4 1-616)
chain: MSSLAVRDPAMDRSLRSVFVGNIPYEATEEQLKDIFSEVGSVVSFRLVYDRETGKPKGYGFCEYQDQETALSAMRNLNGREFSGRALRVDNAASEKNKEELKSLGPAAPIIDSPYGDPIDPEDAPESITRAVASLPPEQMFELMKQMKLCVQNSHQEARNMLLQNPQLAYALLQAQVVMRIMDPEIALKILHRKIHVTPLIPGKSQSVSVSGPGPGPGPGLCPGPNVLLNQQNPPAPQPQHLARRPVKDIPPLMQTPIQGGIPAPGPIPAAVPGAGPGSLTPGGAMQPQLGMPGVGPVPLERGQVQMSDPRAPIPRGPVTPGGLPPRGLLGDAPNDPRGGTLLSVTGEVEPRGYLGPPHQGPPMHHASGHDTRGPSSHEMRGGPLGDPRLLIGEPRGPMIDQRGLPMDGRGGRDSRAMETRAMETEVLETRVMERRGMETCAMETRGMEARGMDARGLEMRGPVPSSRGPMTGGIQGPGPINIGAGGPPQGPRQVPGISGVGNPGAGMQGTGIQGTGMQGAGIQGGGMQGAGIQGVSIQGGGIQGGGIQGASKQGGSQPSSFSPGQSQVTPQDQEKAALIMQVLQLTADQIAMLPPEQRQSILILKEQIQKSTGAS
With B1, the binding result in test [1] is on record as “no binding”; in test [2], “binds”; in test [3], “binds”.

B2: UPF1 (protein, UniProt Q92900 1-1129)
chain: MSVEAYGPSSQTLTFLDTEEAELLGADTQGSEFEFTDFTLPSQTQTPPGGPGGPGGGGAGGPGGAGAGAAAGQLDAQVGPEGILQNGAVDDSVAKTSQLLAELNFEEDEEDTYYTKDLPIHACSYCGIHDPACVVYCNTSKKWFCNGRGNTSGSHIVNHLVRAKCKEVTLHKDGPLGETVLECYNCGCRNVFLLGFIPAKADSVVVLLCRQPCASQSSLKDINWDSSQWQPLIQDRCFLSWLVKIPSEQEQLRARQITAQQINKLEELWKENPSATLEDLEKPGVDEEPQHVLLRYEDAYQYQNIFGPLVKLEADYDKKLKESQTQDNITVRWDLGLNKKRIAYFTLPKTDSGNEDLVIIWLRDMRLMQGDEICLRYKGDLAPLWKGIGHVIKVPDNYGDEIAIELRSSVGAPVEVTHNFQVDFVWKSTSFDRMQSALKTFAVDETSVSGYIYHKLLGHEVEDVIIKCQLPKRFTAQGLPDLNHSQVYAVKTVLQRPLSLIQGPPGTGKTVTSATIVYHLARQGNGPVLVCAPSNIAVDQLTEKIHQTGLKVVRLCAKSREAIDSPVSFLALHNQIRNMDSMPELQKLQQLKDETGELSSADEKRYRALKRTAERELLMNADVICCTCVGAGDPRLAKMQFRSILIDESTQATEPECMVPVVLGAKQLILVGDHCQLGPVVMCKKAAKAGLSQSLFERLVVLGIRPIRLQVQYRMHPALSAFPSNIFYEGSLQNGVTAADRVKKGFDFQWPQPDKPMFFYVTQGQEEIASSGTSYLNRTEAANVEKITTKLLKAGAKPDQIGIITPYEGQRSYLVQYMQFSGSLHTKLYQEVEIASVDAFQGREKDFIILSCVRANEHQGIGFLNDPRRLNVALTRARYGVIIVGNPKALSKQPLWNHLLNYYKEQKVLVEGPLNNLRESLMQFSKPRKLVNTINPGARFMTTAMYDAREAIIPGSVYDRSSQGRPSSMYFQTHDQIGMISAGPSHVAAMNIPIPFNLVMPPMPPPGYFGQANGPAAGRGTPKGKTGRGGRQKNRFGLPGPSQTNLPNSQASQDVASQPFSQGALTQGYISMSQPSQMSQPGLSQPELSQDSYLGDEFKSQIDVALSQDSTYQGERAYQHGGVTGLSQY
Turning to B2, the binding result in test [1], in test [2] and in test [3] was “binds” throughout.

B3: GIGYF2, Q6Y7W6 1-1299 (protein)
chain: MAAETQTLNFGPEWLRALSSGGSITSPPLSPALPKYKLADYRYGREEMLALFLKDNKIPSDLLDKEFLPILQEEPLPPLALVPFTEEEQRNFSMSVNSAAVLRLTGRGGGGTVVGAPRGRSSSRGRGRGRGECGFYQRSFDEVEGVFGRGGGREMHRSQSWEERGDRRFEKPGRKDVGRPNFEEGGPTSVGRKHEFIRSESENWRIFREEQNGEDEDGGWRLAGSRRDGERWRPHSPDGPRSAGWREHMERRRRFEFDFRDRDDERGYRRVRSGSGSIDDDRDSLPEWCLEDAEEEMGTFDSSGAFLSLKKVQKEPIPEEQEMDFRPVDEGEECSDSEGSHNEEAKEPDKTNKKEGEKTDRVGVEASEETPQTSSSSARPGTPSDHQSQEASQFERKDEPKTEQTEKAEEETRMENSLPAKVPSRGDEMVADVQQPLSQIPSDTASPLLILPPPVPNPSPTLRPVETPVVGAPGMGSVSTEPDDEEGLKHLEQQAEKMVAYLQDSALDDERLASKLQEHRAKGVSIPLMHEAMQKWYYKDPQGEIQGPFNNQEMAEWFQAGYFTMSLLVKRACDESFQPLGDIMKMWGRVPFSPGPAPPPHMGELDQERLTRQQELTALYQMQHLQYQQFLIQQQYAQVLAQQQKAALSSQQQQQLALLLQQFQTLKMRISDQNIIPSVTRSVSVPDTGSIWELQPTASQPTVWEGGSVWDLPLDTTTPGPALEQLQQLEKAKAAKLEQERREAEMRAKREEEERKRQEELRRQQEEILRRQQEEERKRREEEELARRKQEEALRRQREQEIALRRQREEEERQQQEEALRRLEERRREEEERRKQEELLRKQEEEAAKWAREEEEAQRRLEENRLRMEEEAARLRHEEEERKRKELEVQRQKELMRQRQQQQEALRRLQQQQQQQQLAQMKLPSSSTWGQQSNTTACQSQATLSLAEIQKLEEERERQLREEQRRQQRELMKALQQQQQQQQQKLSGWGNVSKPSGTTKSLLEIQQEEARQMQKQQQQQQQHQQPNRARNNTHSNLHTSIGNSVWGSINTGPPNQWASDLVSSIWSNADTKNSNMGFWDDAVKEVGPRNSTNKNKNNASLSKSVGVSNRQNKKVEEEEKLLKLFQGVNKAQDGFTQWCEQMLHALNTANNLDVPTFVSFLKEVESPYEVHDYIRAYLGDTSEAKEFAKQFLERRAKQKANQQRQQQQLPQQQQQQPPQQPPQQPQQQDSVWGMNHSTLHSVFQTNQSNNQQSNFEAVQSGKKKKKQKMVRADPSLLGFSVNASSERLNMGEIETLDDY
Consider B3, for which the binding entry in test [4] is on record as “no binding”.
